What follows is the remainder of the data, with few or none of the hits. Activity calls are given as the source filed them. Rule as the data show it: active = growth inhibition above about 70%; inactive = the rest.
Experiments:
[1] = NCI Yeast Anticancer Drug Screen. Data for the rad52 strain (AID 147);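 also: 0% = growth of vehicle-treated control cultures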; conditions: S. cerevisiae rad52 mutant growth inhibition, hits give high values
Procedure, shortened: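 Screen used a yeast mutant impaired in DNA repair. After compound exposure, growth was measured. Values reflect inhibition compared with vehicle-treated cells.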

[2] = NCI Yeast Anticancer Drug Screen. Data for the wt1 strain (AID 149);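 also: 0% = growth of vehicle-treated wt1 cultures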; conditions: S. cerevisiae wt1 strain (SPY 50644) growth inhibition, hits give high values
Procedure, shortened: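 Using yeast strain wt1, compound-induced growth inhibition was determined against vehicle-treated cultures.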

[3] = NCI Yeast Anticancer Drug Screen. Data for the rad50EPP+ strain (AID 151);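 also: 0% = growth of vehicle-treated control cultures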; conditions: S. cerevisiae rad50 mutant strain, hits give high values
Procedure, shortened: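 Exposing the rad50EPP+ strain to each compound, growth was compared with vehicle-only cultures to give inhibition.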

[4] = NCI Yeast Anticancer Drug Screen. Data for the mgt1 strain (AID 153); conditions: S. cerevisiae mgt1 mutant growth inhibition, hits give high values
Procedure, shortened: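 Genetically defined yeast (mgt1) treated with compound; inhibition of growth expressed against vehicle-treated controls.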

[5] = NCI Yeast Anticancer Drug Screen. Data for the rad14 strain (AID 159);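 also: 0% = growth of vehicle-treated control cultures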; conditions: S. cerevisiae rad14 strain growth inhibition, hits give high values
Procedure, shortened: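 Screen for anticancer potential: a yeast strain altered in DNA damage repair is grown with compound, and reduced growth is quantified against vehicle controls.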

[6] = NCI Yeast Anticancer Drug Screen. Data for the CLN2oe strain (AID 163);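 also: 0% = growth of vehicle-only control cultures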; conditions: S. cerevisiae CLN2oe strain, hits give high values
Procedure, shortened: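 Values reflect how much compound exposure reduced yeast growth, referenced to vehicle-exposed cells. Assay organism is a strain with a defined genetic change affecting cell-cycle control.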

[7] = NCI Yeast Anticancer Drug Screen. Data for the wt2 strain (AID 169);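 also: 0% = growth of vehicle-treated yeast cultures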; conditions: S. cerevisiae wt2 strain growth inhibition, hits give high values
Procedure, shortened: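 Values express reduction in yeast growth under compound treatment, referenced to vehicle-treated cells.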

[8] = NCI Yeast Anticancer Drug Screen. Data for the mlh1 strain (AID 171);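 also: 0% = growth of vehicle-treated control cultures of the same strain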; conditions: S. cerevisiae mlh1 strain growth inhibition, hits give high values
Procedure, shortened: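 Steps: expose the defined-mutant yeast strain to compound; expose a parallel culture to vehicle; measure growth; express compound effect as inhibition relative to the vehicle culture.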

[9] = NCI Yeast Anticancer Drug Screen. Data for the sgs1 strain (AID 173);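 also: 0% = growth of vehicle-only control cultures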; conditions: S. cerevisiae sgs1 mutant, hits give high values
Procedure, shortened: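 Treat defined-mutant yeast with compound; measure growth; calculate inhibition relative to vehicle-treated cells.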

[10] = NCI Yeast Anticancer Drug Screen. Data for the rad18 strain (AID 177); conditions: S. cerevisiae rad18 mutant growth inhibition, hits give high values
Procedure, shortened: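 A genetically defined yeast mutant impaired in DNA damage repair was treated with test compounds, then its growth was measured against cultures receiving vehicle alone.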

Measured: growth inhibition

Cc1cc(N2CCN(C)CC2)n2nc(-c3ccc(Cl)cc3)nc2n1
inactive: [1]; at 1.2 µM -2% | [1]; at 3.7 µM -2% | [1]; at 11.0 µM -4% | [1]; at 33.0 µM -2% | [1]; at 100.0 µM -4% | [2]; at 1.2 µM -2% | [2]; at 3.7 µM -2% | [2]; at 11.0 µM 0% | [2]; at 33.0 µM -3% | [2]; at 100.0 µM -4% | [3]; at 1.2 µM -1% | [3]; at 3.7 µM -1% | [3]; at 11.0 µM 1% | [3]; at 33.0 µM 2% | [3]; at 100.0 µM 0% | [4]; at 1.2 µM -2% | [4]; at 3.7 µM -19% | [4]; at 11.0 µM -5% | [4]; at 33.0 µM -8% | [4]; at 100.0 µM -11% | [5]; at 1.2 µM -4% | [5]; at 3.7 µM -3% | [5]; at 11.0 µM -2% | [5]; at 33.0 µM -1% | [5]; at 100.0 µM 0% | [6]; at 1.2 µM -3% | [6]; at 3.7 µM 0% | [6]; at 11.0 µM 1% | [6]; at 33.0 µM 0% | [6]; at 100.0 µM 0% | [7]; at 1.2 µM -3% | [7]; at 3.7 µM -4% | [7]; at 11.0 µM -3% | [7]; at 33.0 µM -3% | [7]; at 100.0 µM -4% | [8]; at 1.2 µM -3% | [8]; at 3.7 µM -1% | [8]; at 11.0 µM 2% | [8]; at 33.0 µM -2% | [8]; at 100.0 µM -23% | [9]; at 1.2 µM -1% | [9]; at 3.7 µM -1% | [9]; at 11.0 µM 1% | [9]; at 33.0 µM -3% | [9]; at 100.0 µM -2% | [10]; at 1.2 µM 0% | [10]; at 3.7 µM -2% | [10]; at 11.0 µM -3% | [10]; at 33.0 µM -14% | [10]; at 100.0 µM -20%

CC[C@]1(O)C[C@H]2CN(CCc3c([nH]c4ccccc34)[C@@](C(=O)OC)(c3cc4c(cc3OC)N(C=O)[C@H]3[C@@](O)(C(=O)OC)[C@H](OC(C)=O)[C@]5(CC)C=CCN6CC[C@]43[C@@H]65)C2)C1
inactive: [1]; at 1.2 µM -1% | [1]; at 3.7 µM -1% | [1]; at 11.0 µM 1% | [1]; at 33.0 µM -1% | [1]; at 100.0 µM -3% | [3]; at 1.2 µM -2% | [3]; at 3.7 µM -4% | [3]; at 11.0 µM -4% | [3]; at 33.0 µM -2% | [3]; at 100.0 µM -7% | [4]; at 1.2 µM -5% | [4]; at 3.7 µM -3% | [4]; at 11.0 µM -3% | [4]; at 33.0 µM -4% | [4]; at 100.0 µM -7% | [5]; at 1.2 µM -2% | [5]; at 3.7 µM -4% | [5]; at 11.0 µM -4% | [5]; at 33.0 µM -2% | [5]; at 100.0 µM -3% | [6]; at 1.2 µM -8% | [6]; at 3.7 µM -2% | [6]; at 11.0 µM -3% | [6]; at 33.0 µM -9% | [6]; at 100.0 µM -5% | [7]; at 1.2 µM -4% | [7]; at 3.7 µM -4% | [7]; at 11.0 µM -4% | [7]; at 33.0 µM -4% | [7]; at 100.0 µM -5% | [8]; at 1.2 µM -2% | [8]; at 3.7 µM -2% | [8]; at 11.0 µM -2% | [8]; at 33.0 µM -3% | [8]; at 100.0 µM -5% | [9]; at 1.2 µM -1% | [9]; at 3.7 µM -2% | [9]; at 11.0 µM -2% | [9]; at 33.0 µM -2% | [9]; at 100.0 µM -5% | [10]; at 1.2 µM -3% | [10]; at 3.7 µM -6% | [10]; at 11.0 µM -8% | [10]; at 33.0 µM -13% | [10]; at 100.0 µM -12%

O=C1C=CC(=Nc2ccc3c(c2)C(O)c2ccccc2-3)O1 (stereo not given)
inactive: [1]; at 1.2 µM -4% | [1]; at 3.7 µM -5% | [1]; at 11.0 µM -2% | [1]; at 33.0 µM 3% | [1]; at 100.0 µM 8% | [2]; at 1.2 µM -4% | [2]; at 3.7 µM -3% | [2]; at 11.0 µM -3% | [2]; at 33.0 µM 0% | [2]; at 100.0 µM 0% | [3]; at 1.2 µM 1% | [3]; at 3.7 µM 0% | [3]; at 11.0 µM 1% | [3]; at 33.0 µM 10% | [3]; at 100.0 µM 34% | [4]; at 1.2 µM -3% | [4]; at 3.7 µM -5% | [4]; at 11.0 µM -2% | [4]; at 33.0 µM 1% | [4]; at 100.0 µM 10% | [5]; at 1.2 µM -3% | [5]; at 3.7 µM -5% | [5]; at 11.0 µM -2% | [5]; at 33.0 µM 4% | [5]; at 100.0 µM 10% | [6]; at 1.2 µM -8% | [6]; at 3.7 µM -4% | [6]; at 11.0 µM -10% | [6]; at 33.0 µM -10% | [6]; at 100.0 µM -7% | [7]; at 1.2 µM -5% | [7]; at 3.7 µM -5% | [7]; at 11.0 µM -3% | [7]; at 33.0 µM -2% | [7]; at 100.0 µM 1% | [8]; at 1.2 µM -1% | [8]; at 3.7 µM -1% | [8]; at 11.0 µM 4% | [8]; at 33.0 µM 9% | [8]; at 100.0 µM 14% | [9]; at 1.2 µM -1% | [9]; at 3.7 µM 1% | [9]; at 11.0 µM 3% | [9]; at 33.0 µM 8% | [9]; at 100.0 µM 13% | [10]; at 1.2 µM -4% | [10]; at 3.7 µM -2% | [10]; at 11.0 µM -1% | [10]; at 33.0 µM 5% | [10]; at 100.0 µM 13%

Reference: PubChem BioAssay (NCI)
